Results are given in words; binding and its absence hold for the method and conditions named. Some binding calls cover weakened binding; strength is not graded here.
Key:
[1] = target: MT5: recombinant VEGF MiniTrap (dimer) (human); test: affinity chromatography, ligand coupled to HiTrap NHS-activated HP column
[2] = target: MT5: recombinant VEGF MiniTrap (dimer) (human); test: affinity chromatography, MT5 captured on immobilised mAb and eluted at low pH

B1: mAb4 (a mouse anti-VEGFR1 mAb mouse IgG1) (antibody, V domains shown)
VH: EVQLVESGGDLVKPGGSLKLSCAASGFTFSDSGMSWVRQTPDKRLEWVATISSGGGYTYYSDSVEGRFTISRDNANNTLFLQMSSLKSEDTAMFYCARLGNYGGYYGMDYWGQGTSVTVSS
VL: DIQMTQSPSSLSASLGGKVTITCKTSQDSNKYIAWYQHKPGKGPRLLIHYTSTLQPGIPSRFSGSGSGRDYSFSISNLEPEDIATYYCLQYDNLWTFGGGTKLEIKR
Which results are given for B1?
binding [1]: binds; binding [2]: binds

From patent US20210214733A1
